{
  "source": "paper PMC12670160",
  "about": "“A drug-repurposing screen of FDA- and EMA-approved drugs identifies two NF-κB inhibitors active against eumycetoma” (Journal of Antimicrobial Chemotherapy, 2025)",
  "note": "Structures can show the parent of a compound that is named as a salt. The campaign covered roughly 5,300 compounds. About 130 (2.5%) showed an effect of 50% or more. The list shows a part of the results.",
  "data": [
    {"system": "M. mycetomatis strain mm55", "settings": "primary screen, metabolic activity vs growth control; 96 h, 2 µM; inhibitor", "units": {"% viability": "%"}, "values": [
      {"molecule": "COc1cc2c(c(OC)c1OC)-c1c(cc3c(c1OC)OCO3)C[C@H](C)[C@@H](C)C2", "note": "[ONC0005204, schisandrin b]", "% viability": 87.3},
      {"molecule": "CC(C)=CCC/C(C)=C/CC/C(C)=C/CSc1ccccc1C(=O)O", "note": "[ONC0001366, salirasib]", "% viability": 91.38},
      {"molecule": "COc1ccc2cc(-c3nc(-c4ccc([S+](C)[O-])cc4)[nH]c3-c3ccncc3)ccc2c1", "note": "(stereo not shown) [ONC0004861, tie2 kinase inhibitor]", "% viability": 106.3},
      {"molecule": "CCNC(=O)[C@H]1O[C@@H](n2cnc3c(N)nc(NCCc4ccc(CCC(=O)O)cc4)nc32)[C@@H](O)[C@@H]1O", "note": "[ONC0004900, cgs 21680 hcl]", "% viability": 86.91},
      {"molecule": "COc1ccc(NC(=O)c2ccc(-c3ccc(-c4noc(C)n4)cc3C)cc2)cc1N1CCN(C)CC1", "note": "[ONC0001716, gr127935]", "% viability": 118.7},
      {"molecule": "CCCCNc1ccc(C(=O)OCCN(C)C)cc1", "note": "[ONC0000552, tetracaine hydrochloride]", "% viability": 91.69},
      {"molecule": "NC(=O)C1=CN([C@@H]2O[C@H](COP(=O)(O)OP(=O)(O)OC[C@H]3O[C@@H](n4cnc5c(N)ncnc54)[C@H](OP(=O)(O)O)[C@@H]3O)[C@@H](O)[C@H]2O)C=CC1", "note": "[ONC0002212, nadph tetracyclohexanamine]", "% viability": 75.27},
      {"molecule": "C[C@]1(COc2ccc(N3CCC(Oc4ccc(OC(F)(F)F)cc4)CC3)cc2)Cn2cc([N+](=O)[O-])nc2O1", "note": "[ONC0000375, delamanid]", "% viability": 87.74},
      {"molecule": "C=C[C@@H]1C[C@]1(NC(=O)[C@@H]1C[C@@H]2CN1C(=O)[C@H](C(C)(C)C)NC(=O)O[C@@H]1C[C@H]1CCCCCc1nc3ccc(OC)cc3nc1O2)C(=O)NS(=O)(=O)C1CC1", "note": "[ONC0002080, grazoprevir]", "% viability": 68.44},
      {"molecule": "COc1ncc(-c2ccc3nccc(-c4ccnnc4)c3c2)cc1NS(=O)(=O)c1ccc(F)cc1F", "note": "[ONC0004334, omipalisib gsk2126458 gsk458]", "% viability": 126.5},
      {"molecule": "CC(C)(C)/[N+]([O-])=C/c1ccc(S(=O)(=O)O)cc1S(=O)(=O)O", "note": "[ONC0005107, nxy059 disufenton sodium]", "% viability": 119.4},
      {"molecule": "CN1CCC(=C2c3ccccc3CCc3sccc32)CC1", "note": "[ONC0004270, pizotyline malate]", "% viability": 77.97},
      {"molecule": "CCc1cc(-c2n[nH]c(C)c2-c2ccc3c(c2)OCCO3)c(O)cc1O", "note": "[ONC0003616, cct018159]", "% viability": 49.48},
      {"molecule": "COc1ccc(N2CCOCC2)c2sc(NC(=O)N3CCC(C)(O)CC3)nc12", "note": "[ONC0001313, tozadenant]", "% viability": 78.27},
      {"molecule": "N=C(N)NCCCCN", "note": "[ONC0003495, agmatine sulfate]", "% viability": 64.29},
      {"molecule": "CN1CCOC(c2ccccc2)c2ccccc2C1", "note": "(stereo not shown) [ONC0000697, nefopam]", "% viability": 116},
      {"molecule": "C[C@H](CSC(=O)c1ccccc1)C(=O)N1C[C@@H](Sc2ccccc2)C[C@H]1C(=O)O", "note": "[ONC0002285, zofenopril calcium]", "% viability": 89.14},
      {"molecule": "O=C(Cc1ccc(Cl)c(Cl)c1)N1CCCCC1CN1CCCC1", "note": "(stereo not shown) [ONC0003117, brl52537]", "% viability": 77.93},
      {"molecule": "Brc1c(Br)c(Br)c2[nH]nnc2c1Br", "note": "[ONC0003695, 4567tetrabromobenzotriazole]", "% viability": 61.11},
      {"molecule": "O=C1[C@H](CC[C@H](O)c2ccc(F)cc2)[C@@H](c2ccc(O)cc2)N1c1ccc(F)cc1", "note": "[ONC0003961, ezetimibe]", "% viability": 73.64},
      {"molecule": "c1cc(-c2cnn3cc(-c4ccc(OCCN5CCCCC5)cc4)cnc23)ccn1", "note": "[ONC0001536, dorsomorphin]", "% viability": 89.15},
      {"molecule": "O=S(=O)(O)c1cc(I)c(O)c2ncccc12", "note": "[ONC0004262, chiniofon]", "% viability": 59.44},
      {"molecule": "c1cc2c3c(c1)c1c(n3CCNC2)CCCC1", "note": "[ONC0000088, way629]", "% viability": 100.3},
      {"molecule": "O=C(c1cc(S(=O)(=O)Nc2ccccc2F)c(F)cc1Cl)N1CCN2CCC[C@@H]2C1", "note": "[ONC0001094, abt639]", "% viability": 70.25},
      {"molecule": "O=C(Cc1ccccc1)Nc1nc2ccc(Cl)cc2c2nc(-c3ccco3)nn12", "note": "[ONC0000800, mrs1220]", "% viability": 83.11},
      {"molecule": "CN1CCC(NC(=O)c2cc(-c3c(O)cc(O)cc3Oc3ccc([N+](=O)[O-])cc3)on2)CC1", "note": "[ONC0005119, nmse973]", "% viability": 137.1},
      {"molecule": "CC(C)NC[C@H](O)COc1cccc2[nH]ccc12", "note": "[ONC0002469, pindolol]", "% viability": 54.49},
      {"molecule": "CC(C)(N)c1cc(C(=O)N[C@@H]2CCc3ccc(Oc4ccnc5c4CCC(=O)N5)cc3C2)cc(C(F)(F)F)c1", "note": "[ONC0000152, ml786]", "% viability": 97.05},
      {"molecule": "Cc1cc(-c2ncc(CC(=O)Nc3ccc(-c4cnccn4)cn3)cc2C)ccn1", "note": "[ONC0005026, lgk974]", "% viability": 76.92},
      {"molecule": "C=CCNc1c(O)cc2c(O)c1C[C@@H](C)C[C@H](OC)[C@H](O)[C@@H](C)/C=C(\\C)[C@H](OC(N)=O)[C@@H](OC)/C=C\\C=C(/C)C(=O)N2", "note": "[ONC0000815, retaspimycin hydrochloride]", "% viability": 79.52},
      {"molecule": "CNCC(O)c1ccc(O)cc1", "note": "(stereo not shown) [ONC0005413, oxedrine]", "% viability": 69.09},
      {"molecule": "CC(C)NCC(O)c1ccc(N)c(C#N)c1", "note": "(stereo not shown) [ONC0003014, cimaterol]", "% viability": 76.31},
      {"molecule": "CC(C)c1ccc(NC(=O)c2cccs2)c(-c2nc3ccccc3[nH]c2=O)c1", "note": "[ONC0000068, ml281]", "% viability": 104.2},
      {"molecule": "CC(COc1ccccc1Cc1ccccc1)N1CCCCC1", "note": "(stereo not shown) [ONC0000291, benproperine phosphate]", "% viability": 109.2},
      {"molecule": "CC(O)(P(=O)(O)O)P(=O)(O)O", "note": "[ONC0003924, etidronate disodium]", "% viability": 67.43},
      {"molecule": "CCCCCCCCCCCCCC(=O)OC(C)C", "note": "[ONC0002797, isopropyl myristate]", "% viability": 114},
      {"molecule": "Cc1n[nH]c(C)c1Cc1sc2c(c1C(=O)N1C[C@H](O)CO1)c(=O)n(C)c(=O)n2CC(C)C", "note": "[ONC0001268, arc155858]", "% viability": 79.96},
      {"molecule": "CC(=C\\c1ccc(Cl)cc1)/C(C)=N/O", "note": "[ONC0000836, ap18]", "% viability": 83.86},
      {"molecule": "CCC1NC(=O)c2cc(S(N)(=O)=O)c(Cl)cc2N1", "note": "(stereo not shown) [ONC0002418, quinethazone]", "% viability": 111.4},
      {"molecule": "Nc1ncnc2c1C(=O)N(c1ccc([C@H]3CC[C@H](CC(=O)O)CC3)cc1)CCO2", "note": "[ONC0000931, pf04620110]", "% viability": 63.19},
      {"molecule": "COc1ccccc1N1CCN(CCCCNC(=O)c2ccc3ccccc3c2)CC1", "note": "[ONC0002951, bp897]", "% viability": 81.63},
      {"molecule": "Cc1ncc(COP(=O)(O)O)c(C=O)c1O", "note": "[ONC0005433, mc1]", "% viability": 91.13},
      {"molecule": "Cc1ccc2c(=O)c3ccccc3n(CCCN)c2c1C", "note": "[ONC0001338, er27319 maleate]", "% viability": 111.3},
      {"molecule": "CN(Cc1cnc2nc(N)nc(N)c2n1)c1ccc(C(=O)N[C@@H](CCC(=O)O)C(=O)O)cc1", "note": "[ONC0000455, methotrexate hydrate]", "% viability": 76.36},
      {"molecule": "CNC(C)CCC=C(C)C", "note": "(stereo not shown) [ONC0002934, isometheptenemucate]", "% viability": 66.34},
      {"molecule": "O=C(COc1ccc(Cl)cc1)N1CCN(Cc2ccc3c(c2)OCO3)CC1", "note": "[ONC0003121, fipexide hydrochloride]", "% viability": 94.56},
      {"molecule": "CCN(CC)CCNc1ccc(CO)c2sc3ccccc3c(=O)c12", "note": "[ONC0002180, hycanthone]", "% viability": 64.05},
      {"molecule": "CCOc1ccc2nc3cc(N)ccc3c(N)c2c1", "note": "[ONC0004254, ethacridine lactate]", "% viability": 71.68},
      {"molecule": "CC(=O)OC[C@H]1O[C@@](COC(C)=O)(O[C@H]2O[C@H](COC(C)=O)[C@@H](OC(C)=O)[C@H](OC(C)=O)[C@H]2OC(C)=O)[C@@H](OC(C)=O)[C@@H]1OC(C)=O", "note": "[ONC0002776, sucrose octaacetate]", "% viability": 73.57},
      {"molecule": "NC(=O)c1nc[nH]c1O", "note": "[ONC0003682, 5hydroxy1himidazole4carboxamide]", "% viability": 60.3},
      {"molecule": "COc1cccc(CN(C(=O)CC(C)(C)C)[C@H]2C[C@@H](C(=O)N3CCNCC3)N(Cc3ccc4c(c3)OCO4)C2)c1", "note": "[ONC0003277, cur61414]", "% viability": 81.81},
      {"molecule": "Nc1cc(F)ccc1NC(=O)/C=C/c1cnn(C/C=C/c2ccccc2)c1", "note": "[ONC0005178, rgfp966]", "% viability": 94.52},
      {"molecule": "Nc1nc(NC2CC2)c2ncn([C@H]3C=C[C@@H](CO)C3)c2n1", "note": "[ONC0000483, abacavir sulfate]", "% viability": 70.44},
      {"molecule": "CSc1ccc(OCc2ncc([N+](=O)[O-])n2C)cc1", "note": "[ONC0003366, fexinidazole]", "% viability": 58.02},
      {"molecule": "C[N+](C)(C)CCOC(=O)CCC(=O)OCC[N+](C)(C)C", "note": "[ONC0002196, succinylcholinechloride]", "% viability": 99.85},
      {"molecule": "CC/C(=C(/c1ccc(/C=C/C(=O)O)cc1)c1ccc2[nH]ncc2c1)c1ccc(F)cc1Cl", "note": "[ONC0001219, brilanestrant]", "% viability": 87.31},
      {"molecule": "O=C(Nc1cnccc1Cl)N1CCN(Cc2ccc3c(c2)OC(F)(F)O3)CC1", "note": "[ONC0001299, jnj42165279]", "% viability": 60.28},
      {"molecule": "COc1cc(C(C)=O)ccc1O", "note": "[ONC0004664, apocynin acetovanillone]", "% viability": 85.85},
      {"molecule": "Cc1ccsc1/C=C/C1=NCCCN1C", "note": "[ONC0002322, morantel citrate]", "% viability": 89.21},
      {"molecule": "CCCn1c(=O)[nH]c2nc(-c3ccc(S(=O)(=O)O)cc3)[nH]c2c1=O", "note": "[ONC0002649, psb1115]", "% viability": 72.06},
      {"molecule": "CO[C@H]1CC[C@H](N(c2cc(C3=CCCCC3)sc2C(=O)O)C(=O)[C@H]2CC[C@H](C)CC2)CC1", "note": "[ONC0000943, vch916]", "% viability": 78.62}
    ]}
  ]
}
